These results are taken from publication doi:10.1101/2025.09.29.679137.

The chains are these.
T1: NEPN (bait of the immunoprecipitations from tumor lysates and from the liver metastasis site) (mouse) (UniProt Q9CQ76)
T1 sequence: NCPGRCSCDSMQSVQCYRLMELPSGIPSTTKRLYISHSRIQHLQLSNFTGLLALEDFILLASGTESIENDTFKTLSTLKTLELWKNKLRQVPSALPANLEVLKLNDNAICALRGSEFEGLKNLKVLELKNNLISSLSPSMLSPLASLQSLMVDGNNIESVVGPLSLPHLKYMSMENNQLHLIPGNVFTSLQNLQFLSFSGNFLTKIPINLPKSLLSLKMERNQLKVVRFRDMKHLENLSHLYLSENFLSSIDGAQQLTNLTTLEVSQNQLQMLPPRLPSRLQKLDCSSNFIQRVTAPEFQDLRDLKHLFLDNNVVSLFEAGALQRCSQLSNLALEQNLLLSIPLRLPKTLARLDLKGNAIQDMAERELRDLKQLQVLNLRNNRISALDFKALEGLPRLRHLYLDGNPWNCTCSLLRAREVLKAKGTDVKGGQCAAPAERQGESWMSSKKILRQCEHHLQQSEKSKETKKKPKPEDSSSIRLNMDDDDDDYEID

B1: Rasa3 (protein, UniProt Q60790 1-834)
chain: MAVEEEGLRVFQSVRIKIGEAKNLPSYPGPNKMRDCYCTVNLDQEEVFRTKIVEKSLCPFYGEDFYCEIPRSFRHLSFYIFDRDVFRRDSIIGKVAIQKEDLQRYHNRDTWFQLQHVDADSEVQGKVHLELRLSEVITDTGVVCHKLAARIFECQGLPIVNGQCDPYATVTLAGPFRSEAKKTKVKKKTNNPQFDEVFYFEVTRPCSYSKKSHFDFEEEDVDKLEIRVDLWNASNLKFGDEFLGELRLPLKILRHSSSYEAWYFLQPRDNGNKSLKPDDLGSLRLNVVYTEDHVFSSEYYSPLRDLLLKSADVEPVSASAAHILGEVCRDKQEAAIPLVRLLLHYGRVVPFISAIASAEVKRTQDPNTIFRGNSLTSKCIDETMKLAGMHYLHVTLKPTIEEICQSHKSCEIDPVKLKDGENLENNMESLRQYVDRIFTVITKSGVSCPTVMCDIFFSLREAAAKRFQDDLDVRYTAVSSFIFLRFFAPAILSPNLFQLTPHHTDPQTSRTLTLISKTIQTLGSLSKSKSASFKESYMATFYEFFNEQKYADAVKNFLDLISSSGRRDPKSIEQPILLKEGFMIKRAQGRKRFGMKNFKKRWFRLTNHEFTYQKSKGDQPLCNIPIENILAVERLEEESFRMKNMFQVIQPERALYIQANNCVEAKDWIDILTKVSQCNQKRLTVFHPSAYLNGHWLCCRASSDTAAGCTPCTGGLPANIQLDIDGDRETERIYSLFNLYMGKLEKMQEACGSKSVYDGPEQEEYSTFVIDDPQETYKTLKQVIAGVGTLEQEHAQYRRDKFKKTRYGSQEHPIGDKSFQNYIRQQSEISTHSI
B2: Aldh5a1 (protein, UniProt Q8BWF0 36-523)
chain: ASGPGGLHADLLRGDSFVGGRWLPAPATFPVYDPASGAKLGTVADCGVPEARAAVRAAYDAFNSWKGVSVKERSLLLRKWYDLMIQNKDDLAKIITAESGKPLKEAQGEILYSALFLEWFSEEARRIYGDIIYTSAKDKRGLVLKQPVGVAAIITPWNFPSAMITRKVGAALAAGCTVVVKPAEDTPYSALALAQLANQAGIPAGVYNVIPCSRNKAKEVGEVLCTDPLVSKISFTGSTATGKILLHHAANSVKRVSMELGGLAPFIVFDSANVDQAVAGAMASKFRNAGQTCVCSNRFLVQRGIHDSFVTKFAEAMKKSLRVGNGFEEGTTQGPLINEKAVEKVEKQVNDAVAKGATVVTGGKRHQSGGNFFEPTLLSNVTRDMLCITEETFGPLAPVIKFDKEEEAVAIANAAEVGLAGYFYSQDPAQIWRVAEQLEVGMVGVNEGLISSVECPFGGVKQSGLGREGSKYGIDEYLEVKYVCYGGL
B3: Arg1 (enzyme, UniProt Q61176 1-323)
chain: MSSKPKSLEIIGAPFSKGQPRGGVEKGPAALRKAGLLEKLKETEYDVRDHGDLAFVDVPNDSSFQIVKNPRSVGKANEELAGVVAEVQKNGRVSVVLGGDHSLAVGSISGHARVHPDLCVIWVDAHTDINTPLTTSSGNLHGQPVSFLLKELKGKFPDVPGFSWVTPCISAKDIVYIGLRDVDPGEHYIIKTLGIKYFSMTEVDKLGIGKVMEETFSYLLGRKKRPIHLSFDVDGLDPAFTPATGTPVLGGLSYREGLYITEEIYKTGLLSGLDIMEVNPTLGKTAEEVKSTVNTAVALTLACFGTQREGNHKPGTDYLKPPK
B4: Serping1 (protein, UniProt P97290 23-504)
chain: DPEATSHSTQDPLEAQAKSRESFPERDDSWSPPEPTVLPSTWPTTSVAITITNDTMGKVANESFSQHSQPAAQLPTDSPGQPPLNSSSQPSTASDLPTQATTEPFCPEPLAQCSDSDRDSSEAKLSEALTDFSVKLYHAFSATKMAKTNMAFSPFSIASLLTQVLLGAGDSTKSNLESILSYPKDFACVHQALKGFSSKGVTSVSQIFHSPDLAIRDTYVNASQSLYGSSPRVLGPDSAANLELINTWVAENTNHKIRKLLDSLPSDTCLVLLNAVYLSAKWKITFEPKKMMAPFFYKNSMIKVPMMSSVKYPVAQFDDHTLKAKVGQLQLSHNLSFVIVVPVFPKHQLKDVEKALNPTVFKAIMKKLELSKFLPTYLTMPHIKVKSSQDMLSVMEKLEFFDFTYDLNLCGLTEDPDLQVSAMKHETVLELTESGVEAAAASAISFGRSLPIFEVQRPFLFLLWDQQHRFPVFMGRVYDPRG
B5: Tsr1 (protein, UniProt Q5SWD9 1-803)
chain: MAAHRSGPLKQQNKAHKGGRHHGGGSAQRDSKGRVGPKILCKKLKRQLSRIDQRHRASQLRKQKRESVLAEKRQLGSKDGPPHQVLVVPLHSRISLPEAFKLLQNEDLGTVYLSERGSTQSFMLLCPSLKHRWFFTYARPGDLHTLLDMAKVADTILFLLDPLEGWDSTGDYCLSCLFAQGLPTYTLAVQGLSGFPPKKQIDARKKLSKMVEKRFPEDKLLLLDTQQESGMLLRQLANQKQRHLAFRDRRAYLFAHVADFVPSEESDLVGTLKISGYVRGRTLNVNSLLHIVGHGDFQMNQIDAPVDPFPLNPRVIKSQKKPNMAMEVCVTDAAPDMEEDLKVLMKADPDHQESLQTEAIPDPMEGEQTWPTEEELDEADDLLKQRSRVVKKVPKGTSSYQAEWILDEGDESDGEGGEYDDIQHEGFMEEESQDGSGEEEEEECETMTLGESVRDDLYDEKVDAEDEERMLEKYKQERLEEMFPDEMDTPRDVAARIRFQKYRGLKSFRTSPWDPKENLPRDYARIFQFQNFVNTRKRIFKEIEEKEAEGAEVGWYVTLHVSDVPVSVVEYFRQGAPLIAFSLLPYEQKMSVLNMVVSRNPGNTEPVKAKEELIFHCGFRRFRASPLFSQHTAADKHKFQRFLTADAAFVVTVFAPITFPPASVLLFKQRRNGMHSLIATGHLFSVDPDRMVIKRVVLSGHPFKIFTKMAVVRYMFFNREDVMWFKPVELRTKWGRRGHIKEPLGTHGHMKCSFDGKLKSQDTVLMNLYKRVFPKWTYDPYVPEPVPWVKSDISSTVSEVDME

These are yes or no findings as the source states them, for the method shown. Binding seen in cells or lysates may run through a third protein. A yes stands for co-enrichment or nearness to the bait. Other partners may have been found.

For this test, the target named is T1, NEPN (bait of the immunoprecipitations from tumor lysates and from the liver metastasis site) (mouse). Kind of test: affinity purification with mass spectrometry.
As to Gpx4, the binding entry was “binds”.
Next, B1: “binds”; B2: “binds”; B3: “binds”.
Next, B4: “binds”.
With B5, the binding result is recorded as “binds”.
